Source: PubChem BioAssay AID256 (DTP/NCI, 2004)
The list does not hold the whole screen: it is rich in T/C values a quarter to a half above the control, in often repeated tests (any T/C) and in doses without a T/C. Other doses and runs of a compound stand elsewhere. T/C is the treated group as % of the vehicle group. Some entries give survivors of the animals treated and no T/C: the source holds a T/C of zero for them, seemingly a mark for toxic or unscored doses. Some doses without a T/C left all or most animals alive at the check, yet need not have been tolerated: the source hardly ever lists a survival T/C far under the control, and the zero likely stands for such cases as well. Survivors were counted at the toxicity check, usually on the fifth day, unless a day is given; later deaths do not show. Schedules are NCI's codes, taken here to give the interval after Q, in days (D) or hours (H), and the number of doses after X. Some doses were run more than once; the values are given in rising order. For survival time, this PubChem deposit counts one and a half times the control or more as active, and values a quarter to a half above the control carry no call in these data; other NCI protocols may use other cut-offs. Some T/C values are followed by the survivors on the day toxicity was checked, most often the fifth; without a count, all were alive then.

Tested on: CD2F1 mice, L1210 leukemia ip, survival T/C
Assay: NCI In Vivo Anticancer Drug Screen. Data for tumor model L1210 Leukemia (intraperitoneal) in CD2F1 (CDF1) mice
Conditions: higher T/C = longer survival
Method in brief: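 Activity against a transplanted murine tumor was judged by comparing the compound group with a vehicle group. The outcome in the treated animals was divided by that in the controls.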

[1] = T/C endpoint: mean survival time, dose: 25.0 mg/kg/injection, schedule: Q01DX009 (ip), vehicle: saline
[2] = T/C endpoint: mean survival time, dose: 50.0 mg/kg/injection, schedule: Q01DX009 (ip), vehicle: saline
[3] = T/C endpoint: mean survival time, dose: 100.0 mg/kg/injection, schedule: Q04DX002 (ip), vehicle: saline with Tween-80
[4] = T/C endpoint: mean survival time, dose: 200.0 mg/kg/injection, schedule: Q04DX002 (ip), vehicle: saline with Tween-80
[5] = T/C endpoint: mean survival time, dose: 400.0 mg/kg/injection, schedule: Q04DX002 (ip), vehicle: saline with Tween-80
[6] = T/C endpoint: mean survival time, dose: 400.0 mg/kg/injection, schedule: Q04DX003 (ip), vehicle: saline with Tween-80
[7] = T/C endpoint: median survival time, dose: 400.0 mg/kg/injection, schedule: Q01DX005 (ip), vehicle: saline with Tween-80
[8] = T/C endpoint: mean survival time, dose: 100.0 mg/kg/injection, schedule: Q04DX003 (ip), vehicle: saline with Tween-80
[9] = T/C endpoint: mean survival time, dose: 200.0 mg/kg/injection, schedule: Q01DX005 (ip), vehicle: saline
[10] = T/C endpoint: mean survival time, dose: 400.0 mg/kg/injection, schedule: Q01DX005 (ip), vehicle: saline
[11] = T/C endpoint: mean survival time, dose: 300.0 mg/kg/injection, schedule: Q01DX001 (ip), vehicle: saline

With CCN(CC)[P+](c1ccccc1O)(N(CC)CC)N(CC)CC the survivor count (T/C endpoint: mean survival time, dose: 1.56 mg/kg/injection, schedule: Q01DX009 (ip), vehicle: saline) was 0 of 6, the survivor count (T/C endpoint: mean survival time, dose: 3.12 mg/kg/injection, schedule: Q01DX009 (ip), vehicle: saline) was 0 of 6 and the survivor count (T/C endpoint: mean survival time, dose: 6.25 mg/kg/injection, schedule: Q01DX009 (ip), vehicle: saline) was 0 of 6. The survivor count (T/C endpoint: mean survival time, dose: 12.5 mg/kg/injection, schedule: Q01DX009 (ip), vehicle: saline) was 0 of 6, the survivor count [1] was 0 of 6 and the survivor count [2] was 0 of 6. For the same compound, the survivor count (T/C endpoint: mean survival time, dose: 100.0 mg/kg/injection, schedule: Q01DX009 (ip), vehicle: saline) was 0 of 6, the survivor count (T/C endpoint: mean survival time, dose: 200.0 mg/kg/injection, schedule: Q01DX009 (ip), vehicle: saline) was 0 of 6 and the survivor count (T/C endpoint: mean survival time, dose: 400.0 mg/kg/injection, schedule: Q01DX009 (ip), vehicle: saline) was 0 of 6.
In the case of NC(N)=N/N=C/c1ccc(Cl)cc1, the survivor count (T/C endpoint: mean survival time, dose: 80.0 mg/kg/injection, schedule: Q01DX009 (ip), vehicle: Klucel (hydroxypropylcellulose) (HPC)) is reported as 2 of 6.
In the case of CCOP(=O)(OCC)C1=C(P(=O)(OCC)OCC)CCCC1, the survivor count (T/C endpoint: mean survival time, dose: 75.0 mg/kg/injection, schedule: Q01DX001 (ip), vehicle: other) is reported as 2 of 6, the survivor count (T/C endpoint: mean survival time, dose: 150.0 mg/kg/injection, schedule: Q01DX001 (ip), vehicle: other) is reported as 0 of 6 and the survivor count (T/C endpoint: mean survival time, dose: 300.0 mg/kg/injection, schedule: Q01DX001 (ip), vehicle: other) is reported as 0 of 6.
For O=C1c2ccccc2C(=O)N1c1ccc(Br)cc1, the survivor count (T/C endpoint: mean survival time, dose: 200.0 mg/kg/injection, schedule: Q01DX001 (ip), vehicle: Klucel (hydroxypropylcellulose) (HPC)) was 1 of 3.
In the case of N=C(N)SCc1c(Cl)c(Cl)c(Cl)c(Cl)c1Cl, the survivor count [3] is reported as 3 of 3, the survivor count [4] is reported as 1 of 3 and the survivor count [5] is reported as 0 of 3.
With CCCCCCCCCCCCNC(=O)c1ccc[n+](C)c1 the survivor count [1] was 4 of 6, the survivor count [2] was 0 of 6 and the survivor count (T/C endpoint: mean survival time, dose: 100.0 mg/kg/injection, schedule: Q04DX003 (ip), vehicle: saline) was 1 of 6. The survivor count (T/C endpoint: mean survival time, dose: 200.0 mg/kg/injection, schedule: Q04DX003 (ip), vehicle: saline) was 0 of 6 and the survivor count (T/C endpoint: mean survival time, dose: 400.0 mg/kg/injection, schedule: Q04DX003 (ip), vehicle: saline) was 0 of 6.
For C1=CSC(=C2SC=CS2)S1, the survivor count [6] was 0 of 6.
With COc1cc(C2CC(C)(O)Oc3cc4c(cc32)OCO4)cc(OC)c1OC (configuration not stated) the T/C (T/C endpoint: median survival time, dose: 86.4 mg/kg/injection, schedule: Q01DX005 (ip), vehicle: saline with Tween-80) was 132 % of control, the T/C (T/C endpoint: median survival time, dose: 144.0 mg/kg/injection, schedule: Q01DX005 (ip), vehicle: saline with Tween-80) was 131 % of control [5 of 6 alive] and the T/C (T/C endpoint: median survival time, dose: 240.0 mg/kg/injection, schedule: Q01DX005 (ip), vehicle: saline with Tween-80) was 146 % of control [4 of 6 alive]. The T/C [7] was 144 % of control [4 of 6 alive], the survivor count [7] was 0 of 6 and 3 of 6 and the survivor count (T/C endpoint: median survival time, dose: 666.67 mg/kg/injection, schedule: Q01DX005 (ip), vehicle: saline with Tween-80) was 2 of 6. The survivor count (T/C endpoint: median survival time, dose: 667.0 mg/kg/injection, schedule: Q01DX005 (ip), vehicle: saline with Tween-80) was 0 of 6.
For Cc1cc(C)c(B(c2c(C)cc(C)cc2C)c2c(C)cc(C)cc2C)c(C)c1, the survivor count [8] was 6 of 6.
For COC(=O)C1=CCC=CC1, the survivor count (T/C endpoint: mean survival time, dose: 400.0 mg/kg/injection, schedule: Q01DX009 (ip), vehicle: saline with Tween-80) was 2 of 6.
In the case of Nc1cc2[nH]cnc2c(=O)[nH]1, the T/C (T/C endpoint: mean survival time, dose: 25.0 mg/kg/injection, schedule: Q01DX009 (ip), vehicle: suspension in saline) is reported as 126 % of control, the T/C (T/C endpoint: mean survival time, dose: 50.0 mg/kg/injection, schedule: Q01DX009 (ip), vehicle: suspension in saline) is reported as 125 and 139 % of control and the T/C (T/C endpoint: mean survival time, dose: 100.0 mg/kg/injection, schedule: Q01DX005 (ip), vehicle: saline) is reported as 125 and 127 % of control. For the same compound, the T/C (T/C endpoint: mean survival time, dose: 100.0 mg/kg/injection, schedule: Q01DX009 (ip), vehicle: suspension in saline) was 138 and 146 % of control, the T/C [9] was 133 and 149 % of control and the T/C [10] was 147 % of control [2 of 3 alive]. The survivor count [10] was 0 of 3 and the survivor count (T/C endpoint: mean survival time, dose: 400.0 mg/kg/injection, schedule: Q01DX009 (ip), vehicle: suspension in saline) was 3 of 6.
O=C1C=CC(=O)C1=Cc1ccc(O)cc1 was tested, and the survivor count (T/C endpoint: mean survival time, dose: 20.0 mg/kg/injection, schedule: Q04DX002 (ip), vehicle: saline with Tween-80) was 0 of 3, the survivor count [3] was 0 of 3 and the survivor count [4] was 0 of 3. For the same compound, the survivor count [5] was 0 of 3.
Cc1ccc(S(=O)(=O)OC/C(=C(/c2ccccc2)c2ccc(Cl)cc2)c2ccccc2)cc1 was tested, and the survivor count [8] was 1 of 6, the survivor count (T/C endpoint: mean survival time, dose: 200.0 mg/kg/injection, schedule: Q04DX003 (ip), vehicle: saline with Tween-80) was 0 of 6 and the survivor count [6] was 0 of 6.
C#CCOCC(O)C[As](=O)(O)c1cccc(Cl)c1 (configuration not stated) was tested, and the survivor count (T/C endpoint: mean survival time, dose: 12.5 mg/kg/injection, schedule: Q04DX003 (ip), vehicle: saline) was 6 of 6 and the survivor count (T/C endpoint: mean survival time, dose: 25.0 mg/kg/injection, schedule: Q04DX003 (ip), vehicle: saline) was 1 of 6.
With NC(=S)c1ncn(C2OC(COC=O)C(OC=O)C2OC=O)c1NC=O (configuration not stated) the T/C (T/C endpoint: mean survival time, dose: 50.0 mg/kg/injection, schedule: Q01DX009 (ip), vehicle: Klucel (hydroxypropylcellulose) (HPC)) was 144 % of control, the T/C (T/C endpoint: mean survival time, dose: 100.0 mg/kg/injection, schedule: Q04DX002 (ip), vehicle: Klucel (hydroxypropylcellulose) (HPC)) was 130 % of control and the T/C (T/C endpoint: mean survival time, dose: 200.0 mg/kg/injection, schedule: Q04DX002 (ip), vehicle: Klucel (hydroxypropylcellulose) (HPC)) was 136 % of control. For the same compound, the survivor count (T/C endpoint: mean survival time, dose: 400.0 mg/kg/injection, schedule: Q01DX009 (ip), vehicle: Klucel (hydroxypropylcellulose) (HPC)) was 5 of 6, the T/C (T/C endpoint: median survival time, dose: 25.0 mg/kg/injection, schedule: Q01DX009 (ip), vehicle: Klucel (hydroxypropylcellulose) (HPC)) was 126 % of control and the T/C (T/C endpoint: median survival time, dose: 50.0 mg/kg/injection, schedule: Q01DX009 (ip), vehicle: Klucel (hydroxypropylcellulose) (HPC), evaluated on day 23) was 137 % of control. The T/C (T/C endpoint: median survival time, dose: 50.0 mg/kg/injection, schedule: Q01DX009 (ip), vehicle: Klucel (hydroxypropylcellulose) (HPC), evaluated on day 30) was 126 % of control, the T/C (T/C endpoint: median survival time, dose: 100.0 mg/kg/injection, schedule: Q01DX009 (ip), vehicle: Klucel (hydroxypropylcellulose) (HPC), evaluated on day 23) was 148 % of control and the T/C (T/C endpoint: median survival time, dose: 100.0 mg/kg/injection, schedule: Q01DX009 (ip), vehicle: Klucel (hydroxypropylcellulose) (HPC), evaluated on day 30) was 136 % of control. The survivor count (T/C endpoint: median survival time, dose: 400.0 mg/kg/injection, schedule: Q01DX009 (ip), vehicle: Klucel (hydroxypropylcellulose) (HPC)) was 0 of 6.
O=c1[nH]cnc2[nH]ccc12 was tested, and the survivor count [11] was 2 of 6.
For CCCCCCCCCCCCCCNCCC(=O)O, the survivor count [11] was 0 of 6.
With CN(C)c1nc(Cl)cc2c1ncn2C1OC(CO)C(O)C1O (configuration not stated) the T/C [9] was 148 % of control.
